Results taken from the supplement of paper PMC10849652.
Some of the results follow.

Amino acid sequences for entries named in this document (tags omitted). A change or cut given only in a name is not applied to a line headed by its entry.
UniProt Q9UBF6, whole entry, looked up: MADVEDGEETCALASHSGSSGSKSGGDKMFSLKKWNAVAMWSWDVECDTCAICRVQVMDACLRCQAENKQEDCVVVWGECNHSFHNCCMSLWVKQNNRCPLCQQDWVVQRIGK
UniProt Q8TA86: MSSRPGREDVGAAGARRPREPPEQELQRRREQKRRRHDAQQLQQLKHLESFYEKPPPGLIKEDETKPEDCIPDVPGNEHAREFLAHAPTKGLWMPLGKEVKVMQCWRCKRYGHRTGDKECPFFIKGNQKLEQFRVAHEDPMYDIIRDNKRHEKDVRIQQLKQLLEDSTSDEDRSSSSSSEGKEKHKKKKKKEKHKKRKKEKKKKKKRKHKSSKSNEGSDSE
UniProt Q9P2E9: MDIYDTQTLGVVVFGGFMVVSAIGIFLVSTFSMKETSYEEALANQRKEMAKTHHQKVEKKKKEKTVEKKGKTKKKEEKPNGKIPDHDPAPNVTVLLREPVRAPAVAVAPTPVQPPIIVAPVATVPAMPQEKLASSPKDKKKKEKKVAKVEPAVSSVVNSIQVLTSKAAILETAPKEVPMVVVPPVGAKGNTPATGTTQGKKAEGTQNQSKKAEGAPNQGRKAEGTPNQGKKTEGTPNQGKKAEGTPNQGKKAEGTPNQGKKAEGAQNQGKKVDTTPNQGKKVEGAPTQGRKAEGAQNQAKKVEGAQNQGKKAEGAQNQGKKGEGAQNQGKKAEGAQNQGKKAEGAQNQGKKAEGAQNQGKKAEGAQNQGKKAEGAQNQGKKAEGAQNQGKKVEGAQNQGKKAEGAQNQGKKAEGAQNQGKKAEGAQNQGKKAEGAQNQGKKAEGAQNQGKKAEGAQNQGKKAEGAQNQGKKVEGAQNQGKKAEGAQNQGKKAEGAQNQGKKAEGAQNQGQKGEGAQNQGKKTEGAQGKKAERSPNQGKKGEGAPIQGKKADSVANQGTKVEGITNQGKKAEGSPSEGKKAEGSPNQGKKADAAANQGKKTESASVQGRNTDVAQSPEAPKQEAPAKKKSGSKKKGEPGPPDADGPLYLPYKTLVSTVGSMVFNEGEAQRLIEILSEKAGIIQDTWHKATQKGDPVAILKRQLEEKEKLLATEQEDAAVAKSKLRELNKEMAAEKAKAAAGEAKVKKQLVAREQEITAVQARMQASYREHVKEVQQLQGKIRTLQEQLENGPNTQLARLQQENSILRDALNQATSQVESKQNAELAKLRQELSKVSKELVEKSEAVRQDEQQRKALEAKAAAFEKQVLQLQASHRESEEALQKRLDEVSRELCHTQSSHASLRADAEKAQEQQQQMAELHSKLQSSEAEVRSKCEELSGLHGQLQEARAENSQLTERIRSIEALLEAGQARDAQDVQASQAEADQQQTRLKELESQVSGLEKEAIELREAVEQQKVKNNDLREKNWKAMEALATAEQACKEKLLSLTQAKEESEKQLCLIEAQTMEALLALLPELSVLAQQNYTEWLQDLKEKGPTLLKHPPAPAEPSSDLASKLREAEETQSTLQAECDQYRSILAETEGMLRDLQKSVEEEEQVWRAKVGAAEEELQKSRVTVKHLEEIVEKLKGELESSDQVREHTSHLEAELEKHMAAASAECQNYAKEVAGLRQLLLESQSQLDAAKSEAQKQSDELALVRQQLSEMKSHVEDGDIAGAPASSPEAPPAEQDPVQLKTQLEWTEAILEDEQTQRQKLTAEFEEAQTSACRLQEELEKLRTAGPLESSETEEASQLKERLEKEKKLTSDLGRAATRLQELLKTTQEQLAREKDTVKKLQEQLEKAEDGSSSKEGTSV
UniProt Q96S38: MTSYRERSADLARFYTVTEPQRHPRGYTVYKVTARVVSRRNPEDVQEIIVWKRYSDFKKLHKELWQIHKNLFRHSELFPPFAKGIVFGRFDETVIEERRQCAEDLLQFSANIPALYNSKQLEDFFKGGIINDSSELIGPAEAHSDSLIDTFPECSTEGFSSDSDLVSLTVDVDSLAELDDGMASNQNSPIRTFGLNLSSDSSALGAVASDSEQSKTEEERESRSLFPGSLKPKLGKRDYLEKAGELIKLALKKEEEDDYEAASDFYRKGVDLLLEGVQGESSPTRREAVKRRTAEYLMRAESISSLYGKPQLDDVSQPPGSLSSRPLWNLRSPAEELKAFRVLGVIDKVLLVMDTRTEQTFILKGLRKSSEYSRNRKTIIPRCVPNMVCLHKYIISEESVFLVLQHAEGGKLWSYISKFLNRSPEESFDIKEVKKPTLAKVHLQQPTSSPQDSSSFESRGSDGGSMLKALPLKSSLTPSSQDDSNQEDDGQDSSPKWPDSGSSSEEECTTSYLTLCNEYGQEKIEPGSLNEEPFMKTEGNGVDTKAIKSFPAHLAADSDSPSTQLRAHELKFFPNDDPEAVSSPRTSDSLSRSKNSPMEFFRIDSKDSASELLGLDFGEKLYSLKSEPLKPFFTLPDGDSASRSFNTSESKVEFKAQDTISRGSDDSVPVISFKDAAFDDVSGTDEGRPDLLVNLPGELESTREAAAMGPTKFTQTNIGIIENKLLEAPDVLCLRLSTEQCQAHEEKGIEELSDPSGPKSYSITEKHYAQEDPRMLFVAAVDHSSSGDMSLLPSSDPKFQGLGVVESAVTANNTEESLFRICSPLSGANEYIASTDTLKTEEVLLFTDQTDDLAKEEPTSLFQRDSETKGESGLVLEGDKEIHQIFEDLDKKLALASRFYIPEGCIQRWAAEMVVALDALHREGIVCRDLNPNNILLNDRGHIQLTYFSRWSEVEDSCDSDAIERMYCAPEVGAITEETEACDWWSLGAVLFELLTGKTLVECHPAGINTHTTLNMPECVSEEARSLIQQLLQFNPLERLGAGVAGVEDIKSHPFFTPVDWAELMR
UniProt O75818: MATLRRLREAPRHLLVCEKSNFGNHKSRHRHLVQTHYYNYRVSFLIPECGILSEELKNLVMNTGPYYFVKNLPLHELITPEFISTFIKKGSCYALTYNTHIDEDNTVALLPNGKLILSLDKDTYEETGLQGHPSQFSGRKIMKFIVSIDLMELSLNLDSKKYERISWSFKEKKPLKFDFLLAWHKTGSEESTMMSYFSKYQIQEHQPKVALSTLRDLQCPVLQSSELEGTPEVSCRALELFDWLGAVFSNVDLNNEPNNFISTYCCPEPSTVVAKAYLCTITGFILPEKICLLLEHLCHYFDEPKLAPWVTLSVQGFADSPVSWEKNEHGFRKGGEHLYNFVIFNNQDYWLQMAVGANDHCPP
UniProt P62070: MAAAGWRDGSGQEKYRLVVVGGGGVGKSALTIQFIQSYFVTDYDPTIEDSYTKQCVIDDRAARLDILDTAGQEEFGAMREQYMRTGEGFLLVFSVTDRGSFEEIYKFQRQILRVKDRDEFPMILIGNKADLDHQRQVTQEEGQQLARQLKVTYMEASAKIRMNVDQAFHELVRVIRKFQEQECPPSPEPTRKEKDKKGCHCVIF
UniProt Q96BH1: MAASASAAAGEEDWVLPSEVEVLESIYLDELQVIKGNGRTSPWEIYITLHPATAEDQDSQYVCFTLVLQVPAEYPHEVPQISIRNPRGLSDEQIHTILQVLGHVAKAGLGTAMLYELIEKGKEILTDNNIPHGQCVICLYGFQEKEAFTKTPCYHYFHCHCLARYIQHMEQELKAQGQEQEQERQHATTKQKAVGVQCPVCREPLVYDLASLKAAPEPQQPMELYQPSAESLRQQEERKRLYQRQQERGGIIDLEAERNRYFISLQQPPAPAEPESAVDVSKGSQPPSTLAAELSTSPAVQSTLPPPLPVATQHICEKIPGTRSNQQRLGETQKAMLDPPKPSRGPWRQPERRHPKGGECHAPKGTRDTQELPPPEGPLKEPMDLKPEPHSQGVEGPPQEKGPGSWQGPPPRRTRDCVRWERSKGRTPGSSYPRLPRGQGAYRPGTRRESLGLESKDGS
UniProt P35244: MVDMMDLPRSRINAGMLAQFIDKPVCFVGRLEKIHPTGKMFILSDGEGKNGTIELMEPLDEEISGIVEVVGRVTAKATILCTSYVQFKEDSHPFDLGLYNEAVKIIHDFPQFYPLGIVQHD
UniProt Q15349, whole entry, looked up: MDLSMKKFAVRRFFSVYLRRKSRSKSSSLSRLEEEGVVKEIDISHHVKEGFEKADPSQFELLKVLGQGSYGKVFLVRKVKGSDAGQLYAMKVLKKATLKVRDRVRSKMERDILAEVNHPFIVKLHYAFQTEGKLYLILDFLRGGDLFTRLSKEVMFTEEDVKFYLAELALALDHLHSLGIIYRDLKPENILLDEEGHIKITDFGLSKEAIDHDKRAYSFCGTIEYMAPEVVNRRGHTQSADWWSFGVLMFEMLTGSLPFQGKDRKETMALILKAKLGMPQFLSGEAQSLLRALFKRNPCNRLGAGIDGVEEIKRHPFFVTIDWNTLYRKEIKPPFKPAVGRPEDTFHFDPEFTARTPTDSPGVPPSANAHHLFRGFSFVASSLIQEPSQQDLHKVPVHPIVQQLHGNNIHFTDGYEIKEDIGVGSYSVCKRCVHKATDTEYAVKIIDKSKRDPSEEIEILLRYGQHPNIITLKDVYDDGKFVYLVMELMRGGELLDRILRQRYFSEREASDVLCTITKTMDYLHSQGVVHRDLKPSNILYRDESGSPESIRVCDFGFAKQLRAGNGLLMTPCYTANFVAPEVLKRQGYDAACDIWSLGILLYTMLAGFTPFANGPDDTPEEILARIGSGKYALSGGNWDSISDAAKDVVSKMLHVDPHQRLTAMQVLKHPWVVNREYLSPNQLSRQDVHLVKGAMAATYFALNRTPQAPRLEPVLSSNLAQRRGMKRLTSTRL
UniProt O75695: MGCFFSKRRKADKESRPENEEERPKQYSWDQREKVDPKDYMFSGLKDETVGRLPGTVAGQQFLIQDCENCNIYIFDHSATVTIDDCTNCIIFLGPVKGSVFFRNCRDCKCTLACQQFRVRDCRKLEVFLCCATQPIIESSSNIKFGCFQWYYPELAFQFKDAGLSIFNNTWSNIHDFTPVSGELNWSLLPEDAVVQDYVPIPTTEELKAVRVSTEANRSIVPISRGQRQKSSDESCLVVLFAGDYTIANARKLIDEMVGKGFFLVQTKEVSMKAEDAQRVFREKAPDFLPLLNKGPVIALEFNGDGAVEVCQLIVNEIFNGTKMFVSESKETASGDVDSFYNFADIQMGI

compound: COC1=CC=C(C=C1)CN2C=CC3=C2C=C(C=C3)C(=O)NO; assay: log2 fold change, soluble protein after heating vs DMSO (PISA); higher = thermal stabilisation; K562 cells, 10 uM, 30 min; active = over 0.2 and 3.5 SD of the protein, either way, in both replicates (recomputed)
Method in brief: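 K562 cells (2×10^6 cells/mL) were treated with 10 μM compound for 30 min, and aliquots were heated for 3 min over 48°C-58°C. Pooled aliquots were extracted in PBS with 0.5% NP-40 at 4°C, and the supernatant after 21,000xg for 90 min was measured by TMTpro 16plex LC-MS/MS with channel sums equalised. Reported thermal stability, relative to control samples and from duplicates, is a log2 fold change.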

log2 fold change, inactive:
RNF7 (UniProt Q9UBF6) 0.008, RPS20 isoform 2 (UniProt P60866) -0.086, RPS27A (UniProt P62979) -0.084, RP9 (UniProt Q8TA86) -0.086, RRBP1 (UniProt Q9P2E9) -0.104, RPL39P5 (UniProt Q59GN2) -0.021, RPL36AL (UniProt Q969Q0) 0.27, RPS6KC1 (UniProt Q96S38) -0.156, RPL23 (UniProt P62829) -0.034, RPP40 (UniProt O75818) -0.029, RRAS2 isoform 4 (UniProt P62070) 0.004, RPS23 (UniProt P62266) -0.022, RPL30 (UniProt P62888) -0.106, RPL11 (UniProt P62913) -0.094, RNF25 (UniProt Q96BH1) 0.113, RPL12 (UniProt P30050) -0.171, RPS3 (UniProt P23396) -0.093, RPA3 (UniProt P35244) 0.054, RPS25 (UniProt P62851) 0.006, RPL27 (UniProt P61353) -0.007, RPS6KA2 isoform 2 (UniProt Q15349) -0.023, RPL36A (UniProt P83881) -0.234, RP2 (UniProt O75695) 0.057
